{"source": "patent US8183379B2", "about": "“Antitumor agents” (Wayne State University, priority 2005, dated 2012)", "system": "Mammary Adenocarcinoma 16/C", "experiment": "Exp 2877A: evaluation against early stage Mammary Adenocarcinoma 16/C implanted SC in C3H female mice", "format": "in vivo", "procedure": "In Experiment #2877A the following general methodologies were employed:\nTumor and Animal Maintenance\nMammary adenocarcinoma-16/C were used in the studies. […] The mice were supplied food and water ad libitum.\nChemotherapy of Solid Tumors\nAnimals were pooled, implanted subcutaneously with 30 to 60 mg tumor fragments by a 12 gauge trocar on day 0, and again pooled before unselective distribution to the various treatment and control groups. For early stage treatment, chemotherapy was started within 1 to 3 days after tumor implantation while the number of cells was relatively small (10^7 to 10^8 cells). Tumors were measured with a caliper twice weekly. Mice were sacrificed when their tumors reached 1500 mg. Tumor weights are estimated from two-dimensional measurements:\nTumor weight (in mg)=(a×b^2)/2, where a and b are the tumor length and width in (mm), respectively.\nEnd Points for Assessing Antitumor Activity for Solid Tumors\nThe following quantitative endpoints were used to assess antitumor activity: • a) Tumor growth delay (T−C value), where T is the median time (in days) required for the treatment group tumors to reach a predetermined size (e.g., 1000 mg), and C is the median time (in days) for the control group tumors to reach the same size. Tumor-free survivors are excluded from these calculations (cures are tabulated separately). This value is an important criterion of antitumor effectiveness because it allows the quantification of tumor cell kill. • b) Calculation of tumor cell kill For subcutaneously (SC) growing tumors, the log10 cell kill was calculated from the following formula:\n[formula] where T−C is the tumor growth delay as described above and Td is the tumor volume doubling time (in days), estimated from the best fit straight line from a log-linear growth plot of the control group tumors in exponential growth (100 to 800 mg range). The conversion of the T−C values to log10 cell kill is possible because the Td of tumors regrowing post treatment (Rx) approximates the Td values of the tumors in untreated control mice.\nThe issue of conversion of tumor growth delay (T−C value) to log tumor cell kill is justified in this series because of the large number of cures obtained with 5 of the agents in this XK469 series that have been previously studied and patented. Cures are a clear indication of tumor cell kill (rather than stasis of tumor cell replication).\nIn selected cases, both for historic in vivo evaluation data as well as data presented here, it is of value to compare log kill numbers from trials of markedly different testing schedules. For this purpose, an activity table was created, and is presented below. It should be noted that an activity rating of +++ to ++++ is needed to effect partial regression (PR) or complete regression (CR) of 100 to 300 mg size masses of most transplanted solid tumors of mice. Thus, an activity rating of + or ++ would not be scored as active by usual clinical criteria. A PR is a reduction in tumor mass to less than 50% of pretreatment size. A CR is a reduction in tumor mass to below palpable size (i.e., reduction to zero detectable mass).", "note": "Some results were stated once for a whole list of compounds, not compound by compound.", "data": [{"smiles": "COc1c(Br)ccc2ccc(Oc3ccc(OC(C)C(=O)O)cc3)nc12", "note": "(stereo not drawn) [SH135R, 2-(4-(7-Bromo-8-methoxyquinolin-2-yloxy)phenoxy)propanoic acid]", "values": [{"measurement": "Activity rating (Comments)", "setting": "Cg 4, IV Q2dx7, 54 mg/kg, total 378 mg/kg, listed as SH 135(R)", "result": "++++ (Highly active ++++ >2.8)"}, {"measurement": "Activity rating (Comments)", "setting": "Cg 5, IV Q2dx7, 34 mg/kg, total 238 mg/kg, listed as SH 135(R)", "result": "++++ (Highly active ++++ >2.8)"}]}, {"smiles": "COc1c(Cl)ccc2ccc(Oc3ccc(OC(C)C(=O)O)cc3)nc12", "note": "(stereo not drawn) [SH140R, 2-(4-(7-Chloro-8-methoxyquinolin-2-yloxy)phenoxy)propanoic acid]", "values": [{"measurement": "Activity rating (Comments)", "setting": "Cg 6, IV Q2dx7, 48-60 mg/kg, total 372 mg/kg, listed as SH 140(R)", "result": "++++ (Highly active ++++ >2.8)"}, {"measurement": "Activity rating (Comments)", "setting": "Cg 7, IV Q2dx7, 30-38 mg/kg, total 234 mg/kg, listed as SH 140(R)", "result": "++++ (Highly active ++++ >2.8)"}]}, {"smiles": "COc1c(F)ccc2ccc(Oc3ccc(OC(C)C(=O)O)cc3)nc12", "note": "(stereo not drawn) [SH144R, 2-(4-(7-Fluoro-8-methoxyquinolin-2-yloxy)phenoxy)propanoic acid]", "values": [{"measurement": "Activity rating (Comments)", "setting": "Cg 8, IV Qd1,3,5,7-13, 57-125 mg/kg, total 822 mg/kg, listed as SH 144(R)", "result": "++++ (Highly active ++++ >2.8)"}, {"measurement": "Activity rating (Comments)", "setting": "Cg 9, IV Qd1,3,5,7-13, 36-75 mg/kg, total 513 mg/kg, listed as SH 144(R)", "result": "+++ (2.0-2.8)"}]}]}
